Most values lie at the level of the controls, where differences are scatter.
Legend:
Assay in all cases: normalised response (% of control), CellTox Green; higher = less cell death (100 = DMSO, 0 = benzethonium chloride kill control)
Settings in all cases: incubation time: 72 h
BT-474 [1] = test system: BT-474
Protocol: (§1)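 DSRT, 72 h incubation, CellTox Green / CellTiter-Glo readout. Signal is normalised to DMSO and benzethonium chloride controls. Value is the normalised response at the lowest tested concentration.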

BT-549 [2] = test system: BT-549
Protocol: as §1

CAL-120 [3] = test system: CAL-120
Protocol: as §1

CAL-148 [4] = test system: CAL-148
Protocol: as §1

CAL-51 [5] = test system: CAL-51
Protocol: as §1

CAL-85-1 [6] = test system: CAL-85-1
Protocol: as §1

DU-4475 [7] = test system: DU-4475
Protocol: as §1

HCC1143 [8] = test system: HCC1143
Protocol: as §1

HCC1599 [9] = test system: HCC1599
Protocol: as §1

HCC1937 [10] = test system: HCC1937
Protocol: as §1

Hs578T [11] = test system: Hs578T
Protocol: as §1

MCF-10A [12] = test system: MCF-10A
Protocol: as §1

MDA-MB-231 [13] = test system: MDA-MB-231
Protocol: as §1

MDA-MB-453 [14] = test system: MDA-MB-453
Protocol: as §1

MDA-MB-468 [15] = test system: MDA-MB-468
Protocol: as §1

MFM-223 [16] = test system: MFM-223
Protocol: as §1

BT-474 [17] = test system: BT-474; remark: listed apart in the source
Protocol: (§2)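 DSRT, 72 h incubation, CellTox Green / CellTiter-Glo readout. Signal is normalised to DMSO and benzethonium chloride controls. Value is the normalised response at dose 2.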

BT-549 [18] = test system: BT-549; remark: listed apart in the source
Protocol: as §2

CAL-120 [19] = test system: CAL-120; remark: listed apart in the source
Protocol: as §2

CAL-148 [20] = test system: CAL-148; remark: listed apart in the source
Protocol: as §2

CAL-51 [21] = test system: CAL-51; remark: listed apart in the source
Protocol: as §2

CAL-85-1 [22] = test system: CAL-85-1; remark: listed apart in the source
Protocol: as §2

DU-4475 [23] = test system: DU-4475; remark: listed apart in the source
Protocol: as §2

HCC1143 [24] = test system: HCC1143; remark: listed apart in the source
Protocol: as §2

HCC1599 [25] = test system: HCC1599; remark: listed apart in the source
Protocol: as §2

HCC1937 [26] = test system: HCC1937; remark: listed apart in the source
Protocol: as §2

HDQ-P1 = test system: HDQ-P1
Protocol: as §2

Hs578T [27] = test system: Hs578T; remark: listed apart in the source
Protocol: as §2

MCF-10A [28] = test system: MCF-10A; remark: listed apart in the source
Protocol: as §2

MDA-MB-231 [29] = test system: MDA-MB-231; remark: listed apart in the source
Protocol: as §2

MDA-MB-436 [30] = test system: MDA-MB-436
Protocol: as §2

MDA-MB-453 [31] = test system: MDA-MB-453; remark: listed apart in the source
Protocol: as §2

MDA-MB-468 [32] = test system: MDA-MB-468; remark: listed apart in the source
Protocol: as §2

MFM-223 [33] = test system: MFM-223; remark: listed apart in the source
Protocol: as §2

MDA-MB-436 [34] = test system: MDA-MB-436; remark: listed apart in the source
Protocol: as §1

COc1cc2nccc(Oc3ccc(NC(=O)C4(C(=O)Nc5ccc(F)cc5)CC4)cc3)c2cc1OC [Cabozantinib] (0.1 nM)
normalised response (BT-474 [1]): 100% | normalised response (BT-549 [2]): 96.1% | normalised response (CAL-120 [3]): 93.7% | normalised response (CAL-148 [4]): 97.5% | normalised response (CAL-51 [5]): 99.6% | normalised response (CAL-85-1 [6]): 109% | normalised response (DU-4475 [7]): 98.1% | normalised response (HCC1143 [8]): 105% | normalised response (HCC1599 [9]): 90.7% | normalised response (HCC1937 [10]): 85.3% | normalised response (Hs578T [11]): 66.8% | normalised response (MCF-10A [12]): 98.5% | normalised response (MDA-MB-231 [13]): 95.9% | normalised response (MDA-MB-453 [14]): 92.9% | normalised response (MDA-MB-468 [15]): 53.5% | normalised response (MFM-223 [16]): 97.7%

CC(C)C(=O)Nc1ccc([N+](=O)[O-])c(C(F)(F)F)c1 [Flutamide] (10 nM)
normalised response (BT-474 [17]): 101% | normalised response (BT-549 [18]): 110% | normalised response (CAL-120 [19]): 97.5% | normalised response (CAL-148 [20]): 97.5% | normalised response (CAL-51 [21]): 108% | normalised response (CAL-85-1 [22]): 96.8% | normalised response (DU-4475 [23]): 96.2% | normalised response (HCC1143 [24]): 104% | normalised response (HCC1599 [25]): 85.1% | normalised response (HCC1937 [26]): 105% | normalised response (HDQ-P1): 104% | normalised response (Hs578T [27]): 83.1% | normalised response (MCF-10A [28]): 76.8% | normalised response (MDA-MB-231 [29]): 94.3% | normalised response (MDA-MB-436 [30]): 94% | normalised response (MDA-MB-453 [31]): 97.8% | normalised response (MDA-MB-468 [32]): 127% | normalised response (MFM-223 [33]): 95.7%

CCN(CC)CCCC(C)Nc1c2ccc(Cl)cc2nc2ccc(OC)cc12 (centres undefined) [Mepacrine] (50 nM)
normalised response (BT-474 [17]): 103% | normalised response (BT-549 [18]): 105% | normalised response (CAL-120 [19]): 101% | normalised response (CAL-148 [20]): 99.2% | normalised response (CAL-51 [21]): 103% | normalised response (CAL-85-1 [22]): 101% | normalised response (DU-4475 [23]): 96.2% | normalised response (HCC1143 [24]): 105% | normalised response (HCC1599 [25]): 91.2% | normalised response (HCC1937 [26]): 66.7% | normalised response (HDQ-P1): 112% | normalised response (Hs578T [27]): 123% | normalised response (MCF-10A [28]): 102% | normalised response (MDA-MB-231 [29]): 100% | normalised response (MDA-MB-436 [30]): 84.3% | normalised response (MDA-MB-453 [31]): 95.5% | normalised response (MDA-MB-468 [32]): 100% | normalised response (MFM-223 [33]): 84.5%

OC[C@H]1O[C@@H](n2cnc3c2N=CNC[C@H]3O)C[C@@H]1O [Pentostatin] (10 nM)
normalised response (BT-474 [17]): 102% | normalised response (BT-549 [18]): 109% | normalised response (CAL-120 [19]): 100% | normalised response (CAL-148 [20]): 108% | normalised response (CAL-51 [21]): 90.4% | normalised response (CAL-85-1 [22]): 98% | normalised response (DU-4475 [23]): 97.5% | normalised response (HCC1143 [24]): 96.5% | normalised response (HCC1599 [25]): 94.8% | normalised response (HCC1937 [26]): 110% | normalised response (HDQ-P1): 104% | normalised response (Hs578T [27]): 128% | normalised response (MCF-10A [28]): 98.5% | normalised response (MDA-MB-231 [29]): 116% | normalised response (MDA-MB-436 [30]): 57% | normalised response (MDA-MB-453 [31]): 92.8% | normalised response (MDA-MB-468 [32]): 99.9% | normalised response (MFM-223 [33]): 104%

O=C(NC[C@H](O)CO)c1ccncc1Nc1ccc(I)cc1F [Pimasertib] (10 nM)
normalised response (BT-474 [17]): 100% | normalised response (BT-549 [18]): 91.7% | normalised response (CAL-120 [19]): 104% | normalised response (CAL-148 [20]): 82.5% | normalised response (CAL-51 [21]): 110% | normalised response (CAL-85-1 [22]): 87.7% | normalised response (DU-4475 [23]): 112% | normalised response (HCC1143 [24]): 117% | normalised response (HCC1599 [25]): 119% | normalised response (HCC1937 [26]): 102% | normalised response (HDQ-P1): 73.5% | normalised response (Hs578T [27]): 111% | normalised response (MCF-10A [28]): 117% | normalised response (MDA-MB-231 [29]): 92.7% | normalised response (MDA-MB-436 [30]): 74.5% | normalised response (MDA-MB-453 [31]): 110% | normalised response (MDA-MB-468 [32]): 82.1% | normalised response (MFM-223 [33]): 92.5%

CC(C)(C)c1cc(NC(=O)Nc2ccc(-c3cn4c(n3)sc3cc(OCCN5CCOCC5)ccc34)cc2)no1 [Quizartinib] (0.1 nM)
normalised response (BT-474 [1]): 104% | normalised response (BT-549 [2]): 84% | normalised response (CAL-120 [3]): 103% | normalised response (CAL-148 [4]): 83% | normalised response (CAL-51 [5]): 105% | normalised response (CAL-85-1 [6]): 103% | normalised response (DU-4475 [7]): 98.8% | normalised response (HCC1143 [8]): 108% | normalised response (HCC1599 [9]): 91.5% | normalised response (HCC1937 [10]): 84.2% | normalised response (Hs578T [11]): 108% | normalised response (MCF-10A [12]): 61.6% | normalised response (MDA-MB-231 [13]): 100% | normalised response (MDA-MB-436 [34]): 94.7% | normalised response (MDA-MB-453 [14]): 112% | normalised response (MDA-MB-468 [15]): 95.8% | normalised response (MFM-223 [16]): 98.9%

C=CC[C@@H]1/C=C(\C)C[C@H](C)C[C@H](OC)[C@H]2O[C@@](O)(C(=O)C(=O)N3CCCC[C@H]3C(=O)O[C@H](/C(C)=C/[C@@H]3CC[C@@H](O)[C@H](OC)C3)[C@H](C)[C@@H](O)CC1=O)[C@H](C)C[C@@H]2OC [Tacrolimus] (1 nM)
normalised response (BT-474 [1]): 98.1% | normalised response (BT-549 [2]): 90.5% | normalised response (CAL-120 [3]): 102% | normalised response (CAL-51 [5]): 103% | normalised response (CAL-85-1 [6]): 91.3% | normalised response (DU-4475 [7]): 92.1% | normalised response (HCC1143 [8]): 110% | normalised response (HCC1599 [9]): 94.1% | normalised response (HCC1937 [10]): 107% | normalised response (Hs578T [11]): 68.3% | normalised response (MCF-10A [12]): 102% | normalised response (MDA-MB-231 [13]): 94.2% | normalised response (MDA-MB-436 [34]): 69.9% | normalised response (MDA-MB-453 [14]): 102% | normalised response (MDA-MB-468 [15]): 117% | normalised response (MFM-223 [16]): 101%
